Some of these results come from one statement about several compounds together. At least one compound was matched to its structure with a doubt left.
Assays:
[1] = tested on: southern armyworm (Spodoptera eridania), 2nd instar larvae; conditions: 300 ppm; 4 days after treatment
Procedure: B.5 Southern Armyworm (Spodoptera eridania), 2nd Instar Larvae
The 10,000 ppm solution was serially diluted in 100% cyclohexanone to make interim solutions. These served as stock solutions for which final dilutions were made by the Tecan in 50% acetone:50% water (v/v) into 10 or 20 ml glass vials. A nonionic surfactant (Kinetic®) was included in the solution at a volume of 0.01% (v/v). The vials were then inserted into an automated electrostatic sprayer equipped with an atomizing nozzle for application to plants/insects. Lima bean plants (variety Sieva) were grown 2 plants to a pot and selected for treatment at the 1st true leaf stage. Test solutions were sprayed onto the foliage by an automated electrostatic plant sprayer equipped with an atomizing spray nozzle. The plants were dried in the sprayer fume hood and then removed from the sprayer. Each pot was placed into perforated plastic bags with a zip closure. Ten to 11 armyworm larvae were placed into the bag and the bags zipped closed. Test plants were maintained in a growth room at about 25° C. and about 20-40% relative humidity for 4 days, avoiding direct exposure to fluorescent light (14:10 light:dark photoperiod) to prevent trapping of heat inside the bags. Mortality and reduced feeding were assessed 4 days after treatment, compared to untreated control plants.

[2] = tested on: green peach aphid (Myzus persicae); test: Green peach aphid (Myzus persicae) systemic artificial diet test; type: in vivo; conditions: 800 ppm; aphid mortality after 3 days
Text: B.3 Green Peach Aphid (Myzus persicae)
For evaluating control of green peach aphid (Myzus persicae) through systemic means the test unit consisted of 96-well-microtiter plates containing liquid artificial diet under an artificial membrane. The compounds were formulated using a solution containing 75% v/v water and 25% v/v DMSO. Different concentrations of formulated compounds were pipetted into the aphid diet, using a custom built pipetter, at two replications. After application, 5-8 adult aphids were placed on the artificial membrane inside the microtiter plate wells. The aphids were then allowed to suck on the treated aphid diet and incubated at about 23±1° C. and about 50±5% relative humidity for 3 days. Aphid mortality and fecundity was then visually assessed.

[3] = tested on: diamond back moth (Plutella xylostella); test: Diamond back moth (Plutella xylostella) cabbage leaf disc dip test; type: in vivo; conditions: 800 ppm; 3rd instar larvae, 72 hours after treatment
Procedure: B.4 Diamond Back Moth (Plutella xylostella)
The active compound is dissolved at the desired concentration in a mixture of 1:1 (vol:vol) distilled water: acetone. Surfactant (Kinetic) is added at a rate of 0.01% (vol/vol). The test solution is prepared at the day of use. Cabbage leaf discs (60 mm in diameter) are dipped in test solution and air-dried. Treated leaves are placed in petri dishes lined with moistened filter paper and inoculated with ten 3rd instar larvae. Mortality is recorded 72 hours after treatment. Feeding damage is also recorded using a scale of 0-100%.

[4] = tested on: boll weevil (Anthonomus grandis); test: Boll weevil (Anthonomus grandis) microtiter diet test, egg and larval mortality; type: in vivo; conditions: 800 ppm; egg and larval mortality after 5 days
Procedure: B.1 Boll Weevil (Anthonomus grandis)
(§1) For evaluating control of boll weevil (Anthonomus grandis) the test unit consisted of 96-well-microtiter plates containing an insect diet and 5-10 A. grandis eggs. The compounds were formulated using a solution containing 75% v/v water and 25% v/v DMSO. Different concentrations of formulated compounds were sprayed onto the insect diet at 5 μl, using a custom-built micro atomizer, at two replications. After application, microtiter plates were incubated at about 25±1° C. and about 75±5% relative humidity for 5 days. Egg and larval mortality was then visually assessed.

[5] = tested on: tobacco budworm (Heliothis virescens); test: Tobacco budworm (Heliothis virescens) microtiter diet test, egg and larval mortality; type: in vivo; conditions: 800 ppm; egg and larval mortality after 5 days
Procedure: B.2 Tobacco Budworm (Heliothis virescens)
as §1, with “of tobacco budworm (Heliothis virescens)” for “of boll weevil (Anthonomus grandis)”, “and 15-25 H. virescens” for “and 5-10 A. grandis”, “at 10” for “at 5”, “about 28±1°” for “about 25±1°”, “about 80±5%” for “about 75±5%”

| SMILES | mortality in comparison with untreated controls [1] | mortality in comparison with untreated controls [2] | mortality in comparison with untreated controls [3] | mortality in comparison with untreated controls [4] | mortality in comparison with untreated controls [5] |
| --- | --- | --- | --- | --- | --- |
| CCS(=O)(=O)c1cc(OCC(F)F)cnc1-c1cn2c(=O)n(C3CC3)c(Cl)cc2n1 [Compound I-44] | over 75% |  |  |  |  |
| CCS(=O)(=O)c1cc(OC(C)(C)C#N)cnc1-c1cn2c(=O)n(C3CC3)c(Cl)cc2n1 [I.2] | over 75% | over 75% | over 75% | over 75% |  |
| CCS(=O)(=O)c1cc(C2(C#N)CC2)cnc1-c1cn2c(=O)n(C3CC3)c(Cl)cc2n1 [I.6] | over 75% | over 75% | over 75% | over 75% | over 75% |
| CCS(=O)(=O)c1cc(-c2ccc(C#N)nc2)cnc1-c1cn2c(=O)n(C3CC3)c(Cl)cc2n1 [I.7] | over 75% | over 75% | over 75% |  |  |
| CCS(=O)(=O)c1cc(-c2cccc(C#N)c2)cnc1-c1cn2c(=O)n(C3CC3)c(Cl)cc2n1 [I.21] | over 75% | over 75% | over 75% | over 75% | over 75% |
| CC(C)S(=O)(=O)c1cc(-c2ccc(F)cc2)c(Cl)nc1-c1cn2c(=O)n(C3CC3)c(Cl)cc2n1 [I.23] |  |  | over 75% |  | over 75% |
| CCS(=O)(=O)c1cc(-c2ccc3c(c2)OCO3)cnc1-c1cn2c(=O)n(C3CC3)c(Cl)cc2n1 [I.32] | over 75% | over 75% | over 75% | over 75% | over 75% |
| CCS(=O)(=O)c1cc(-c2ccc(F)cc2)c(OC)nc1-c1cn2c(=O)n(C3CC3)c(Cl)cc2n1 [I.34] | over 75% |  |  |  |  |
| Cc1nc(-c2cn3c(=O)n(C4CC4)c(Cl)cc3n2)c(S(=O)(=O)C(C)C)cc1-c1ccc(OC(F)(F)F)cc1 [I.38] | over 75% |  |  |  |  |
| Cc1nc(-c2cn3c(=O)n(C4CC4)c(Cl)cc3n2)c(S(=O)(=O)C(C)C)cc1-c1ccc(OC(F)F)cc1 [I.39] | over 75% |  |  |  |  |
| CCS(=O)(=O)c1cc(-c2ccc(F)cc2)cnc1-c1cn2c(=O)n(CC3CC3)c(Cl)cc2n1 [I.40] | over 75% |  |  |  |  |
| Cc1nc(-c2cn3c(=O)n(C4CC4)c(Cl)cc3n2)c(S(=O)(=O)C(C)C)cc1-c1ccc(Cl)cc1 [I.41] | over 75% |  |  |  |  |
| CCS(=N)(=O)c1cc(Br)cnc1-c1cn2c(=O)n(C3CC3)c(Cl)cc2n1 (centres unmarked) [I.45] | over 75% |  | over 75% |  |  |
